Assay results as given in PubChem BioAssay AID493014 (National Center for Advancing Translational Sciences (NCATS), 2011).
The list shows a part of the results. The main result of the screen is listed elsewhere. These columns were measured beside it and carry no call. Compounds called inactive in the main read-out are mostly missing here. Words in brackets tell the shape of the fitted curve; partial curves, single points and poor fits give uncertain potencies.

Assay: qHTS Assay to Find Inhibitors of Chronic Active B-Cell Receptor Signaling
Settings: ABC-DLBCL IkBa-CBG/CBR reporter, luminescence ratio (green luciferase fused to IkBa over red control in TMD8 lymphoma cells), 4 h
In short: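 Cell line TMD8 (human ABC DLBCL), stably expressing tet-inducible CBG68-IkBa fusion and CBR; IMDM/0.5% FBS; cpd up to 46 uM; dox induction, 4 h, 37C/5% CO2; dual luminescence; green/red ratio; MG132 control.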

[1] = measured here: CBR red luminescence, cell number
[2] = measured here: IkBa-CBG green luminescence

SMILES | AC50 [1] | AC50 [2]
CCOc1ccccc1C(=O)N[C@H](C(=O)OCc1cc(=O)oc2cc(C)ccc12)C(C)C | 23.1 µM [falling, single point] | 
Oc1ccc2ccccc2c1C=NCc1ccccc1 | 35.5 µM [falling, single point] | 
O=C(NCC1CCCO1)c1ccc(COc2ccc(Br)cc2)cc1 (stereo not drawn) | 5.17 µM [rising, single point] | 
C/C(Cn1nnc([N+](=O)[O-])n1)=N\NC(=O)c1ccncc1 | 10 µM [falling, single point] | 
Fc1ccc(OCc2nc(-c3ccncc3)n[nH]2)cc1 | 35.5 µM [falling, single point] | 
Cc1ccc2nc(-c3ccc(-c4ccccn4)s3)cn2c1 | 10 µM [falling, partial curve, poor fit] | 
Cc1ccc(CNC(=O)CCc2nnc3ccc(NCCCN4CCCC4=O)nn23)cc1 | 22.4 µM [falling, single point] | 
CC(=O)c1ccc(N2CCN(C(=O)c3cccc(Oc4ccccc4)c3)CC2)cc1 | 14.1 µM [falling, partial curve, poor fit] | 
COc1cccc(CSc2nc3ccncc3[nH]2)c1 | 17.8 µM [falling, single point] | 
C/C=C/C(=O)OCC(=O)Nc1cc(OC)c([N+](=O)[O-])cc1C | 35.5 µM [falling, partial curve, poor fit] | 31.6 µM [rising, partial curve, poor fit]
O=C(CC1CCCCC1)NCc1ccc(F)cc1 | 7.08 µM [rising, partial curve, poor fit] | 
Cc1ccc(Oc2ccc3c(c2)C(=O)N(c2ccc(S(=O)(=O)Nc4nccs4)cc2)C3=O)cc1 | 14.1 µM [falling, single point] | 
Cc1ccccc1NC(=O)COC(=O)c1ccc(S(C)(=O)=O)c([N+](=O)[O-])c1 | 6.31 µM [falling, partial curve] | 10 µM [rising, partial curve, poor fit]
COc1ccccc1C(CCN(Cc1cccs1)C(C)=O)c1ccco1 (stereo not drawn) | 31.6 µM [falling, single point] | 
O=C(CNC(=O)c1cccc(OC(F)F)c1)Nc1ccc(Cl)cc1 | 10 µM [falling, single point] | 
COC(=O)/C(C#N)=C/c1c(N2CCCCCC2)nc2c(C)cccn2c1=O | 25.1 µM [falling, partial curve, poor fit] | 
CC(=O)Nc1ccc2c(c1)N(C(C)=O)c1ccccc1CC2 | 5.01 µM [falling, partial curve, poor fit] | 
CN1/C(=C\C(=O)c2cccnc2)Sc2ccccc21 | 35.5 µM [falling, single point] | 
O=C(NC1CC(=O)N(c2cccc(F)c2)C1)C(=O)c1c[nH]c2ccccc12 (stereo not drawn) | 1.46 µM [falling, full curve] | 
CCN1C(=O)/C(=C\c2nc3ccccc3c(=O)n2-c2ccccc2)c2ccccc21 | 4.11 µM [rising, partial curve, poor fit] | 

Retrieved by structure from above:
SMILES | AC50 [1] | AC50 [2]
CCOc1ccccc1C(=O)N[C@H](C(=O)OCc1cc(=O)oc2cc(C)ccc12)C(C)C | 23.1 µM [falling, single point] | 
CN1/C(=C\C(=O)c2cccnc2)Sc2ccccc21 | 35.5 µM [falling, single point] | 

(list continues)

SMILES | AC50 [1] | AC50 [2]
COc1cc2c(=O)n(Cc3ccco3)c(=O)n(CC(=O)c3cccc(Br)c3)c2cc1OC | 0.708 µM [falling, full curve, poor fit] | 
O=C(CN1C(=O)NC2(CCOc3ccccc32)C1=O)Nc1cccc(Cl)c1 (stereo not drawn) | 14.1 µM [falling, single point] | 
COc1cc(Nc2nc(SCC(=O)c3ccc(Cl)c(Cl)c3)nc3ccccc23)cc(OC)c1 | 5.62 µM [falling, single point] | 
Cc1ccc(S(=O)(=O)Nc2ccc(O)c3cccnc23)cc1 | 35.5 µM [falling, single point] | 
CC(=O)C1=C(O)C(=O)N(c2ccc(Br)cn2)C1c1ccccc1[N+](=O)[O-] (stereo not drawn) | 11.2 µM [falling, partial curve, poor fit] | 
COc1cccc(NC(=O)CNC(=O)[C@@H]2Cc3ccccc3CN2C(=O)OC(C)(C)C)c1 | 0.282 µM [falling, full curve, poor fit] | 
C=CCN(Cc1cc(OC)ccc1OC)S(=O)(=O)N(C)C | 4.47 µM [rising, partial curve] | 
C=CCn1c(=O)c2ccccc2n2c(=S)[nH]nc12 | 6.31 µM [falling, single point] | 
COc1ccccc1-c1nc2s/c(=C\c3cccs3)c(=O)n2n1 | 20.6 µM [falling, partial curve, poor fit] | 
CC(=O)OCC1(C)CN(c2ccccc2)N(C(=O)c2ccc(F)cc2)C1=O (stereo not drawn) | 15.8 µM [falling, single point] | 
CCOCCCNC(=O)/C(C#N)=C/c1ccc(Cl)c([N+](=O)[O-])c1 | 12.6 µM [falling, partial curve] | 
COc1cc(OC)cc(-c2cc3ncccc3cn2)c1 | 20.6 µM [falling, single point] | 
O=C(Nc1ccccc1C(=O)Nc1ccc(F)cc1)c1ccco1 | 15.8 µM [falling, partial curve, poor fit] | 
COc1cc(/C=C2\CCc3ccccc3C2=O)cc(OC)c1OC | 29.1 µM [falling, single point] | 
O=C(Nc1nc(-c2ccccc2)cs1)c1cccnc1 | 0.092 µM [falling, full curve, poor fit] | 
COc1ccc(CC(=O)N[C@@H](CCSC)c2nc3ccccc3[nH]2)cc1 | 0.794 µM [rising, full curve, poor fit] | 
COc1cc(C(F)(F)F)nc2c(Br)c(C(C)(C)C)nn12 | 0.1 µM [rising, full curve, poor fit] | 
Clc1ccc(-c2noc(CCCc3ccccc3)n2)cc1 | 13 µM [rising, partial curve, poor fit] | 
Cc1cc(C)cc(N=Cc2c(O)c3ccccc3oc2=O)c1 | 3.98 µM [falling, full curve, poor fit] | 
CCOC(=O)c1ccc(Nc2nn3c(=O)c4ccccc4nc3s2)cc1 | 0.562 µM [falling, full curve] | 0.316 µM [rising, full curve, poor fit]
